Here are results for 107 sequences from PubChem BioAssay AID1508600 (Functional Genomics Laboratory (NCATS/FGL), 2020).

Among all 53,000 sequences or so, about 3,700 (7%) were called active.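 How the source made its calls: active means gene knockdowns whose robust z-score for IL-1 alpha signal is at least 2 or at most -2, so actives lie on both sides; inactive means the rest.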 The list shows a part of the results.

This experiment is described as follows: Components of the Cytosolic LPS Sensing Pathway: Gene Identification via Genome-wide siRNA Screen.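 Further: robust z of the log signal after scaling to non-targeting control siRNA wells of the plate.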 The following applies: RAW264.7 macrophages, IL-1a HTRF, actives lie on both sides, screened at 100 nM (by protocol), cells primed 5 h with Pam3CSK4 first. In a few lines: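 Cells (RAW264.7, 1×10^4 per well) were transfected with siRNA at 100 nM and cultured 48h at 37 degrees C. Pam3CSK4 was added for 5 hours; LipidA transfection followed for 24 hour. IL-1a was then measured by HTRF.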
Consider GGACCAGAUCCUUCUGCUATT against Ubd, for which the z-score was inactive: 1.04.

With GCUGACCUUCACUACUAUUTT against Cers6, the z-score was inactive: 1.05.

On to GCCCAACGUGGUGUACAUUTT against Gask1b, for which the z-score is active: 4.04.

As for GGUAACCUACAGUCAAAGUTT against Gckr, the z-score is inactive: 0.0759.

For the sequence CGAUGGUCUAAGUGAAGCGTT against Amer1, the z-score was inactive: 0.22.

For the sequence GGCUAAGUCCAACUUUAGATT against Tmprss5, the z-score was inactive: -0.187.

In the case of GGAAUUAGAGACUGCGGAATT against Zfp821, the z-score was inactive: 0.422.

Consider AUAGACUCUUCCAUCGGCATT against Ppp1r13l, for which the z-score was inactive: 0.927.

With GGCAGAACUUACACGAGAUTT against Pphln1, the z-score is inactive: -0.893.

Take GGCAUUGUGGAUUUCGAGCTT against Tbata: the z-score is inactive: 0.864.

For GGAGCAUUUUUUUGUUUCUTT against Cul4b, the z-score was inactive: 0.403.

As for CCUAGCUAAUAAAACAUGUTT against Ptgr1, the z-score was inactive: 0.183.

Regarding GGCUACCGCCACAUUGAUUTT against Akr1a1, the z-score was inactive: -1.11.

For the sequence GGUAUCUGACAUCAUUUCUTT against Csn1s2b, the z-score is inactive: 1.58.

On to CCACUCAACAUGACAACUATT against Chrna2, for which the z-score was inactive: 1.9.

Consider GGUGUGAAACGAAAAAAGATT against Hivep1, for which the z-score was inactive: 0.0572.

GCUACGACGUAACUGACAATT against Rpl3l: the z-score was inactive: -0.222.

Turning to GGAUGAUCAUUUUGUUGCATT against Glod4, the z-score is inactive: 0.607.

Consider GGAUGGUCUUAGGAUUACGTT against Fgf15, for which the z-score was active: 2.04.

Consider GGCCUAUUCUACCUGUAGCTT against Olfr167, for which the z-score was inactive: 0.298.

Consider GCAAGCACGGAGAACCAAUTT against Selenoi, for which the z-score is inactive: -0.212.

As to GGAGAAACUGAUGACAGUGTT against Plcb3, the z-score was inactive: -1.01.

Turning to GGAGGAAGUGAAGAAGAUATT against Echdc1, the z-score is inactive: -0.00291.

On to CCCGCUUUCAGUCUUAACATT against Coa5, for which the z-score is inactive: -0.465.

For GCAACUGUUACUUCUCAACTT against Lrif1, the z-score is inactive: 0.598.

For the sequence GCUGAAGAAUGCUAUAAUUTT against Olfr63, the z-score was inactive: 0.00913.

Take GAAAGCUAACCUCUUUCUGTT against Ang2: the z-score is inactive: 1.53.

On to GGAAAUGCCACUAAAGAGUTT against Zdhhc3, for which the z-score was inactive: -0.438.

Regarding GGAGGUCCUGAAACACCUCTT against Apc2, the z-score is inactive: -0.391.

In the case of AGCUCUAGCAACUAAGCGCTT against Fbxw26, the z-score was inactive: 1.12.

CCAAUCCCAUCCUCAUCCUTT against Fev: the z-score was inactive: 0.317.

GGUGCCGCCUUUGAUUGCATT against Gsto1: the z-score is inactive: -0.231.

As for GCAUUAUGUCAGUAGCUCATT against Snrpb, the z-score was active: -3.47.

For the sequence GGUAUAAAUUUUCUCAGCUTT against Sntg1, the z-score is inactive: -0.18.

Turning to GCAAAUUUUAUCAACCGCATT against Mical3, the z-score was inactive: -0.0618.

With GGGAUGAUUCAAUGGAUAATT against Tbx22, the z-score was inactive: 0.789.

GGUAGAGAUGUCUAAAGAUTT against Galnt9: the z-score was inactive: -0.358.

Consider GGUCCAUUAGCUAAAUCUUTT against Mysm1, for which the z-score is inactive: 1.87.

For GGAGCAGGAUAUUGAGACCTT against Ndrg1, the z-score was inactive: -0.916.

Regarding GGCCAACAAGGAAAACAUCTT against Bcas2, the z-score is inactive: 1.33.

Regarding CCGAGUAAGUUUAACUAAGTT against Lrrc39, the z-score is inactive: -0.501.

For the sequence GGGAUUUUCUGUGUAUCUUTT against Coq5, the z-score is inactive: -1.2.

Take GGAGCAUCUCCUCAUGGAUTT against Actl11: the z-score is active: 2.08.

Turning to GCAUUCACUCCAUCAAUAGTT against Ccdc149, the z-score was inactive: -0.809.

As to GGCUCUUGCUUUAGUAUUCTT against Ly9, the z-score was inactive: 0.99.

In the case of GGGCUCCUUGUUUUAUUCUTT against Prelid1, the z-score is inactive: 0.485.

GGAGAAAGUGGACAGGGCUTT against Jph4: the z-score is inactive: 0.00563.

For GGAGGAAAUUAUAAACAAGTT against Ifit1, the z-score is inactive: -0.149.

On to GGGAAUUCAUUGAGAAAUATT against Anxa6, for which the z-score is inactive: 1.26.

On to GGUGGAUUUGACUAUGCCCTT against Ptprv, for which the z-score was inactive: 0.494.

Regarding AGGCCUUCAAUAUCCCAUCTT against Zfp457, the z-score is inactive: 0.229.

Consider GGACCAGACGAACAGUGAUTT against Surf2, for which the z-score was active: 2.28.

Turning to GGCGGAGAGGAAAUCUAUGTT against Mycs, the z-score is inactive: 1.4.

As to CCUACUUACUCCUGUAUAATT against Adam3, the z-score was inactive: 1.77.

Regarding CCAUAUCUCAUCCUACAGCTT against Tnk1, the z-score was inactive: -0.432.

As for GGGAAAACUUGGAUAUUCUTT against Vopp1, the z-score is inactive: 0.507.

On to GGAUACAAUCAUCGCCAUCTT against Olfr101, for which the z-score was inactive: 1.3.

Consider GGAUGAGGGAACGUACAUUTT against Il18r1, for which the z-score was active: 5.74.

As for GUCAAAACACUCACGUACCTT against Mustn1, the z-score was inactive: 0.168.

On to GGUAUCUUGAGAAGCCAAUTT against Stat3, for which the z-score is inactive: -0.536.

GCCUGUAAGGAGAAUCAGCTT against Car4: the z-score is inactive: 0.684.

Regarding GGAGAUGUAACCAUAGGCCTT against Dctn6, the z-score is active: 2.07.

With CGAGAUCUUUCCUAGUUUUTT against Mxd1, the z-score is inactive: 0.0738.

For GGAGAUGCUGAAGGAUGAGTT against Prmt1, the z-score is inactive: -0.022.

Turning to GUGCAUUGUCUUUUGUAGATT against Olfr1095, the z-score was inactive: -0.753.

On to GCAGUCGCCGCUUUGUAAATT against Tlx3, for which the z-score was inactive: 0.669.

Regarding GGGAAACAAAUGGGUUGGCTT against Chil5, the z-score was inactive: -0.504.

As to GGAGGAAAGAAGUCCUACATT against Rnase2b, the z-score was inactive: -0.835.

Consider GGGAAACUGACCAUCAAAATT against Micu1, for which the z-score is inactive: 0.893.

As for CCAAGUACUGGAAAUUCAATT against Mmp15, the z-score was inactive: 1.3.

On to CGUGUUUGACAAGGCAUUGTT against Vps11, for which the z-score is inactive: -0.6.

For GCAGUUUUAUAACAGCCCUTT against Bcs1l, the z-score is inactive: -0.025.

As for CCUUCUUGUCCUUCUUUUCTT against Olfr503, the z-score was inactive: -1.36.

For the sequence CCUCAUCGUUAUUUGGAUCTT against Tacr3, the z-score is inactive: -0.146.

As to GCGAAACGCAACAUAGUCATT against Npffr2, the z-score was inactive: -1.01.

On to AGCUGCUCUGAGUUAGAAATT against Scd2, for which the z-score was inactive: 0.934.

For the sequence GCUUAAUCCGGCUACCACUTT against Selenon, the z-score was inactive: -1.24.

Consider GGACUGAGAAGAAAUGAGUTT against Il27ra, for which the z-score is inactive: 0.386.

As for GGAGUACCAGAGUAUAUGATT against Nmrk1, the z-score is inactive: -0.969.

In the case of GCCUGUUUACGGUUUUUCUTT against Prkab2, the z-score is inactive: 0.551.

CCAUGUCUUAGAAGAAGACTT against Dlc1: the z-score was inactive: 1.99.

Consider GGCUCAAGUUACUUGCUAUTT against Fras1, for which the z-score is inactive: 1.8.

With GCCAAAUCUGCGUGAAUUATT against Lrp8, the z-score is inactive: -1.87.

With GGAGUUUCUACGUGUAUGCTT against Tpra1, the z-score is inactive: -0.161.

Consider GGAAAAUAAGCUAAGGAAGTT against Peg12, for which the z-score was inactive: -0.018.

GCGACCUUAGACAUUUGCATT against Prkrip1: the z-score was inactive: -0.652.

Regarding GGAUGGACAUCCAAGCAGGTT against Fabp9, the z-score is inactive: -1.97.

With GGAUCGUCUCCAAGUGGAUTT against Rhbdl2, the z-score was inactive: -0.502.

With GGCUGGUCAAAAUUUGGAATT against Cdca2, the z-score was inactive: -0.9.

GCAUCCACCUCAACGAUAUTT against Dlg3: the z-score was inactive: -1.33.

On to GGUCUGAUACCUCAUUCCATT against Il22ra2, for which the z-score was inactive: -1.21.

With GGAGAGGUGGUAUUGUUGGTT against Olfr1297, the z-score is inactive: 0.29.

On to CCCUGACAAUCUUUAUUUCTT against Olfr883, for which the z-score was inactive: -0.784.

GCCUUUGCACAGUUUGGACTT against BC002059: the z-score was inactive: -1.13.

On to CGUGUUCAGCGUAGAAACUTT against Ttll1, for which the z-score is inactive: 0.283.

As to CGAAAAAGACAGGCUUGGATT against Dapl1, the z-score was inactive: 0.21.

For the sequence CGAAUGCUUGGAGAACAAUTT against Scube2, the z-score was inactive: 0.992.

As to GCACCAAACCAAUAUUAGUTT against Epb41l3, the z-score is inactive: 1.13.

With CCCAUACUGUCACUUUAAGTT against H2bc8, the z-score is active: -2.23.

Take GGAGAUGACAGAUGACCUUTT against Glyat: the z-score was inactive: -0.124.

For GCUCUGAUGUCAACCUUCCTT against Fam174c, the z-score is active: -2.23.

In the case of GGGAGGAACUUUGUAUAAUTT against Prl3a1, the z-score was inactive: 0.217.

As for GGUCUCAAAUCACUAGAGUTT against Lum, the z-score was inactive: 0.32.

Turning to GGAGCGUGUGGAAGAAAAATT against Nedd8, the z-score was inactive: -0.0924.

As for GGGAGUUAAACUUCUCUGCTT against Tlr13, the z-score is inactive: -0.0637.

For GGAAAACUAGUGUUGCUAUTT against Ptbp2, the z-score is inactive: 0.865.

In the case of “GGUAGUUGGGACGAUCAUATT against 3110070M22Rik”, the z-score is inactive: 0.00845.
